# Assay results from PubChem BioAssay AID2685 (National Center for Advancing Translational Sciences (NCATS), 2010).
# The other results are listed elsewhere or left out. These are further read-outs of the screen, such as a control signal, another cell line or another target. No call is given for them. Most of these compounds were active or inconclusive in the main read-out, so they are no random draw. Words in brackets tell the shape of the fitted curve; partial curves, single points and poor fits give uncertain potencies.
# Assay: qHTS Assay for Lipid Storage Modulators in Drosophila S3 Cells;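 as to cell number change: cells counted by Cell Tracker Red CMTPX staining in the red channel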
# Details: BODIPY lipid droplet fluorescence, 18-24 h; for cell number change: measured here: cell count max response, cells fed with added oleic acid
# In short: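 Drosophila S3 cells got compounds at several concentrations plus oleic acid (400 uM solution). Laser-scanning cytometry with 488 nm excitation read lipid droplets at 500-530 nm and cells at 575-640 nm. Percent activity was relative to 20 uM Triacsin C.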
# [1] = measured here: lipid fluorescence (Fed channel) AC50, cells fed with added oleic acid
# [2] = measured here: cell number channel AC50, cells fed with added oleic acid
Structure (SMILES),cell number change [%],AC50 [1],AC50 [2]
O=C(CCc1nc(-c2ccccc2Cl)no1)NCCc1ccccc1,7.67,–,–
COc1ccccc1CNC(=O)COC(=O)Cc1cccc(F)c1,28.4,"11.6 µM [rising, partial curve]",–
O=C(COC(=O)c1ccccc1N1C(=O)C2C3CCC(C3)C2C1=O)c1ccccc1 (configuration not stated),-42.6,"6.51 µM [falling, single point]","4.11 µM [falling, full curve]"
CCCN1C=CC(=C2C(=O)c3ccccc3C2=O)C=C1,-13.6,"3.66 µM [rising, partial curve, poor fit]",–
O=C(O)c1cc([N+](=O)[O-])cc2c1nnn2O,-11.6,"3.26 µM [falling, single point]",–
CC(C)Cn1c(SCC(=O)c2ccc(Cl)s2)nnc1-c1ccco1,-23.7,–,–
CCOC(=O)c1c2ccccc2[n+]([O-])n1[C@@H](C)C(N)=O,21.6,"0.517 µM [rising, partial curve, poor fit]",–
Cc1ccccc1-n1ncc2c1CC(C)(C)CC2NC(=O)c1cn[nH]c1C (configuration not stated),1.14,–,–
CCCCCCSc1cc(-c2nc3cc(C)ccn3c2NC2CCCCC2)ccc1OC,9.97,"18.4 µM [falling, single point]",–
N#CCC(=O)Nc1ccc(C(=O)NNC(=O)c2ccccc2-n2cccc2)cc1,-25.9,"25.9 µM [falling, partial curve, poor fit]",–
O=C(COC(=O)C1CC1)Nc1ccc(N=Nc2ccccc2)cc1,6.61,"4.11 µM [rising, single point]",–
CC(C)(C)OC(=O)NCCc1nnc(S(=O)(=O)Cc2ccc(Cl)cc2Cl)o1,-89.1,"11.6 µM [falling, partial curve]","18.4 µM [falling, partial curve]"
Cc1cccc(NC(=O)CCNS(=O)(=O)c2ccc(Cl)cc2)c1,7.56,"0.13 µM [rising, partial curve, poor fit]",–
COc1nc(N(C)S(=O)(=O)c2ccc(C)cc2)nc(C)c1Br,-4.01,"0.00461 µM [rising, full curve, poor fit]",–
COc1ccc(NS(=O)(=O)c2ccc3c(c2)NC(=O)CO3)c(OC)c1,-6.49,–,–
Cc1cccc(C)c1NC(=O)C1CCCN1C(=O)NCc1ccccc1 (configuration not stated),16.2,–,"0.116 µM [rising, full curve, poor fit]"
CSc1ccc(S(=O)(=O)NCCSC(C)(C)C)cc1,6.51,"25.9 µM [falling, partial curve]","2.31 µM [falling, partial curve, poor fit]"
CCCCC(=O)Nc1ccc(C(=O)c2ccccc2)cc1,-4.41,–,–
O=C(CSc1nnc(Cc2ccccc2)o1)Nc1ccc2c(c1)OCO2,–,"0.58 µM [rising, single point]","0.206 µM [rising, full curve]"
CCC(=O)NC(=S)Nc1ccccc1C(=O)NC1CCCCC1,101,"1.03 µM [falling, single point]","29.1 µM [rising, single point]"

# Part of the list above, tab-delimited:
Structure (SMILES)	cell number change [%]	AC50 [1]	AC50 [2]
CCCN1C=CC(=C2C(=O)c3ccccc3C2=O)C=C1	-13.6	3.66 µM [rising, partial curve, poor fit]	–
CC(C)(C)OC(=O)NCCc1nnc(S(=O)(=O)Cc2ccc(Cl)cc2Cl)o1	-89.1	11.6 µM [falling, partial curve]	18.4 µM [falling, partial curve]
COc1ccc(NS(=O)(=O)c2ccc3c(c2)NC(=O)CO3)c(OC)c1	-6.49	–	–

# Additional compounds

Structure (SMILES),cell number change [%],AC50 [1],AC50 [2]
Cc1ccc(C)c(OCc2nc(-c3cccnc3)no2)c1,-25.8,"14.6 µM [falling, partial curve]",–
Cc1c(CN2CCC(C(=O)Nc3cccc(-c4cccc(Cl)c4)c3)CC2)cnn1C,–,"6.51 µM [rising, single point]",–
CC(C)c1ccc(NC(=O)c2csnn2)cc1,-12.9,"6.51 µM [falling, single point]",–
Cc1ccc(C)c(N(Cc2ccccc2F)S(C)(=O)=O)c1,-15.3,–,–
COc1ccc(Cc2c(O)nc(SCC(=O)NC(C)(C)C)[nH]c2=O)cc1,-16.7,"29.1 µM [falling, single point]",–
COc1ccc(C(=O)NCC2OCCc3ccccc32)cc1OC (configuration not stated),5.6,"6.51 µM [rising, single point]",–
COc1ccc(S(=O)(=O)N[C@@H](Cc2ccccc2)C(=O)N2CC[C@@]3(O)CCCC[C@H]3C2)cc1,-14.6,"29.1 µM [rising, single point]",–
O=C(OCC(=O)c1c[nH]c2ccccc12)c1ccc([N+](=O)[O-])s1,-19.1,–,–
Cn1nc(-c2ccccc2)c(-c2nc(-c3ccc(Cl)cc3)no2)c1Cl,79.1,"0.58 µM [rising, single point]","23.1 µM [rising, partial curve]"
CCn1c(SCC(=O)Nc2ccc(OC)c(OC)c2)nnc1-c1c[nH]c2ccccc12,–,"2.31 µM [rising, partial curve]","2.31 µM [rising, partial curve]"
COc1c(C)cccc1C(=O)NC(=S)Nc1ccccc1N1CCCC1,–,–,"2.91 µM [rising, partial curve, poor fit]"
CC(OC(=O)c1ccc(-n2cnnn2)cc1)C(=O)NCc1ccccc1 (configuration not stated),19.5,–,–
COc1cccc(C2C(C(=O)Nc3ccc(C)cc3C)=C(C)Nc3ncnn32)c1OC (configuration not stated),22.9,"32.6 µM [rising, single point]",–
O=c1[nH]nc(SCc2nc3ccccc3s2)n1C1CC1,-43.7,"0.164 µM [falling, full curve]","0.0651 µM [falling, full curve]"
Clc1ccc(-c2nc(-c3cnccn3)no2)cc1,31.7,"3.26 µM [rising, partial curve]","3.66 µM [rising, full curve, poor fit]"
CN(C)CCCN(C(=O)c1ccc(S(=O)(=O)N(C)C)cc1)c1nc2ccc(F)cc2s1,8.09,"6.51 µM [falling, single point]",–
CN(c1ccccc1)S(=O)(=O)c1ccc(Cl)c(C(=O)NCc2ccccc2CN2CCCC2)c1,14.2,"29.1 µM [rising, partial curve, poor fit]",–
CN1CCN(CCOc2ccc(Cl)c(Cl)c2)CC1,-23,–,"0.00461 µM [falling, full curve, poor fit]"
CCOc1cc(S(=O)(=O)Nc2ccncc2)ccc1F,-7.73,"1.64 µM [falling, full curve]",–
COc1cccc(-n2c(=O)c3c(C)c(C(=O)N(C)C)sc3n(CC(=O)NCCc3ccc(OC)c(OC)c3)c2=O)c1,-0.538,–,–

Structure (SMILES),cell number change [%],AC50 [1],AC50 [2]
CO/N=C(\C(=O)N[C@@H]1C(=O)N2C(C(=O)O)=C(COC(C)=O)CS[C@H]12)c1csc(N)n1 (stereo in doubt),34,"29.1 µM [rising, single point]","29.1 µM [rising, single point]"
O=C1N=C(N2CCCC2)S/C1=C\C=C\c1ccccc1,7.15,"1.46 µM [rising, partial curve]","0.651 µM [rising, partial curve]"
CCc1c(C)sc(NC(=O)OC)c1C(=O)N1CCCCC1,-3.14,"0.146 µM [falling, full curve]","0.92 µM [falling, full curve, poor fit]"
O=C(CSc1ccccn1)Nc1ccc(NC(=O)CSc2ccccn2)cc1,-24.6,–,–
Cc1oc2nc(SCCCC(=O)NCCCO)nc(N)c2c1C,–,–,"2.06 µM [rising, partial curve]"
O=C1c2ccccc2NC(c2ccc(F)cc2)N1Cc1ccccc1 (configuration not stated),-1.8,–,"0.00411 µM [rising, full curve, poor fit]"
OCc1ccc(-c2nn(Cc3ccccc3)c3ccccc23)o1,18.6,"3.26 µM [rising, full curve]",–
NC(=O)c1cccnc1,–,"23.1 µM [falling, single point]",–
O=C(NCCc1ccccn1)C1CCCN(S(=O)(=O)Cc2ccccc2)C1 (configuration not stated),–,"6.51 µM [falling, single point]","1.84 µM [falling, single point]"
COc1ccc(CN(C)CC(=O)NC(=O)NCc2ccccc2)c(OC)c1,37.2,"18.4 µM [rising, single point]","8.2 µM [rising, partial curve]"
O=C1/C(=C/c2ccc(O)cc2)SC(=S)N1Cc1cccnc1,40,"29.1 µM [rising, single point]","4.11 µM [falling, partial curve]"
CCCCC(=O)Nc1ccc(NC(=O)c2ccc3c(c2)OCO3)cc1OC,–,"0.206 µM [rising, partial curve]","0.206 µM [rising, full curve]"
O=C1c2ccccc2C2=Nc3ccccc3SC(c3ccc(Cl)cc3)C12 (configuration not stated),-37.3,"25.9 µM [falling, single point]","20.6 µM [falling, single point]"
COc1cnc(-c2ccccn2)nc1Oc1ccc(C(C)(C)C)cc1,-39.7,–,"18.4 µM [falling, single point]"
O=C(/C=C/c1ccc2c(c1)OCO2)N1CCN(c2ccccc2F)CC1,25.4,"23.1 µM [rising, single point]","0.82 µM [rising, full curve, poor fit]"
Cc1ccc(S(=O)(=O)N2CCC(C(=O)OCC(=O)NC(C)c3ccc(F)cc3)CC2)cc1C (configuration not stated),9.96,"2.59 µM [rising, partial curve]","6.51 µM [falling, single point]"
CC1CCCN(Cc2c(O)ccc3c(=O)c(-c4nc5ccccc5s4)c(N)oc23)C1 (configuration not stated),-29.1,"4.11 µM [falling, partial curve]",–
Cc1nnc(NC(=O)CSc2ncc(-c3ccccc3)[nH]2)s1,25,"6.51 µM [rising, single point]",–
